Test results reported in patent US20030171278A1 (Genentech, published 2003).
These are yes or no findings as the source states them, for the method shown. Some results given as binding are weak or reduced against the parent protein; the word gives no strength. For part of these data: Sequences can lack the tags named with a protein.

Tests used:
[1] = molecular target: HER2 expressed on cells (BT 474, MDA 361) (human) (UniProt P04626); test: FACS on MDA 361, BT 474 and BaF3 cells (FIG. 13)
[2] = molecular target: HER2 expressed on cells (BT 474, MDA 361) (human) (UniProt P04626); test: FACS, BT 474 and MDA 361 cells, 0, 0.5 or 5 µM 1.1.FI-Zb, streptavidin-PE
[3] = molecular target: T1, HER2 extracellular domain (HER2-ECD) (human, UniProt P04626 23-652); test: competition ELISA, block of 1.1.FI-Zb binding to immobilized HER2-ECD
T1 construct: extracellular domain; also called immobilized HER2; extracellular domain of Erb2

| Binder | binding [1] | binding [2] | binding [3] |
| --- | --- | --- | --- |
| QVYESWGCIGPGCACLQACL (biotinylated using NHS-LC-biotin (sites not given)) [1.1.FI-Zb (biotinylated 1.1.FI-Z)] | binds | binds |  |
| QVYESWGCIGPGCACLQACLGGGSSG (Fc fusion, not shown: a dimerising Fc or GST) [1.1FI-Fc] |  |  | binds |
